The target of test [1] is T1, HA-JMJD5:RCCD1-3XFLAG complex (human) (UniProt Q8N371+A6NED2). Nature of the test: co-IP.
Test [2] concerns the target T1, HA-JMJD5:RCCD1-3XFLAG complex (human). Nature of the test: pull-down.
The target of test [3] is HA-JMJD5 (wildtype, pEF6) (human, UniProt Q8N371 1-416). Nature of the test: co-IP.
Test [4] has as its target HA-JMJD5 D73A (pEF6) (human) (UniProt Q8N371). Nature of the test: co-IP.
The target of test [5] is HA-JMJD5 D73A/E77A (pEF6) (human) (UniProt Q8N371). Nature of the test: co-IP.
The target of test [6] is HA-JMJD5 E77A (pEF6) (human) (UniProt Q8N371). Nature of the test: co-IP.

The chains behind the UniProt entries cited, without tags or fusion partners. Where a name states a change or a piece, a line headed by the entry shows the natural chain unless it says otherwise.
UniProt Q8N371, whole entry: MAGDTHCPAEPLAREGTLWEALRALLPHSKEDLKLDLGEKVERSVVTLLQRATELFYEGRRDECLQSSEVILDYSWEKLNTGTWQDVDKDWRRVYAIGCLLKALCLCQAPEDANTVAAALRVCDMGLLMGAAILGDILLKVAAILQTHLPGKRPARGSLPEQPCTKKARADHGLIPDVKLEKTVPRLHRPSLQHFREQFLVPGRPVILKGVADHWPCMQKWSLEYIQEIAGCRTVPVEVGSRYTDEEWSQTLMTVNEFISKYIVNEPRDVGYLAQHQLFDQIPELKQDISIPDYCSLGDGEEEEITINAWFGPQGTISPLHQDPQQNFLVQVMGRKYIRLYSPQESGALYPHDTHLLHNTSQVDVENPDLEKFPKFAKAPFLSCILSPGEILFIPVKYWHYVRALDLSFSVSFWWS

No constants are given. Whether binding was seen depends on the method and setting. For some of these results: Binding seen in cells or lysates may run through a third protein. Some results given as binding are weak or reduced against the parent protein; the word gives no strength. For some of these results: Where a sequence is shown, tags or fusion partners need not be part of it.

B1: CX3 complex (RAD51C:XRCC3), endogenous (complex, UniProt O43502;O43542)
chain 1: MRGKTFRFEMQRDLVSFPLSPAVRVKLVSAGFQTAEELLEVKPSELSKEVGISKAEALETLQIIRRECLTNKPRYAGTSESHKKCTALELLEQEHTQGFIITFCSALDDILGGGVPLMKTTEICGAPGVGKTQLCMQLAVDVQIPECFGGVAGEAVFIDTEGSFMVDRVVDLATACIQHLQLIAEKHKGEEHRKALEDFTLDNILSHIYYFRCRDYTELLAQVYLLPDFLSEHSKVRLVIVDGIAFPFRHDLDDLSLRTRLLNGLAQQMISLANNHRLAVILTNQMTTKIDRNQALLVPALGESWGHAATIRLIFHWDRKQRLATLYKSPSQKECTVLFQIKPQGFRDTVVTSACSLQTEGSLSTRKRSRDPEEEL
chain 2: MDLDLLDLNPRIIAAIKKAKLKSVKEVLHFSGPDLKRLTNLSSPEVWHLLRTASLHLRGSSILTALQLHQQKERFPTQHQRLSLGCPVLDALLRGGLPLDGITELAGRSSAGKTQLALQLCLAVQFPRQHGGLEAGAVYICTEDAFPHKRLQQLMAQQPRLRTDVPGELLQKLRFGSQIFIEHVADVDTLLECVNKKVPVLLSRGMARLVVIDSVAAPFRCEFDSQASAPRARHLQSLGATLRELSSAFQSPVLCINQVTEAMEEQGAAHGPLGFWDERVSPALGITWANQLLVRLLADRLREEEAALGCPARTLRVLSAPHLPPSSCSYTISAEGVRGTPGTQSH
Consider B1, for which, in test [1], the binding result is “binds”.

B2: recombinant CX3 complex (complex, UniProt O43502;O43542)
chain 1: B1 chain 1
chain 2: B1 chain 2
As for B2, the binding entry in test [2] is “binds”.

B3: RCCD1-FLAG (wildtype, pIHZ) (natural protein)
chain: MAEERPGAWFGFGFCGFGQELGSGRGRQVHSPSPLRAGVDICRVSASWSYTAFVTRGGRLELSGSASGAAGRCKDAWASEGLLAVLRAGPGPEALLQVWAAESALRGEPLWAQNVVPEAEGEDDPAGEAQAGRLPLLPCARAYVSPRAPFYRPLAPELRARQLELGAEHALLLDAAGQVFSWGGGRHGQLGHGTLEAELEPRLLEALQGLVMAEVAAGGWHSVCVSETGDIYIWGWNESGQLALPTRNLAEDGETVAREATELNEDGSQVKRTGGAEDGAPAPFIAVQPFPALLDLPMGSDAVKASCGSRHTAVVTRTGELYTWGWGKYGQLGHEDTTSLDRPRRVEYFVDKQLQVKAVTCGPWNTYVYAVEKGKS
For B3, the binding entry is reported as “binds” in test [3], “binds” in test [4], “no binding” in test [5] and “binds” in test [6].

B4: RAD51B (protein, UniProt O15315 1-384)
chain: MGSKKLKRVGLSQELCDRLSRHQILTCQDFLCLSPLELMKVTGLSYRGVHELLCMVSRACAPKMQTAYGIKAQRSADFSPAFLSTTLSALDEALHGGVACGSLTEITGPPGCGKTQFCIMMSILATLPTNMGGLEGAVVYIDTESAFSAERLVEIAESRFPRYFNTEEKLLLTSSKVHLYRELTCDEVLQRIESLEEEIISKGIKLVILDSVASVVRKEFDAQLQGNLKERNKFLAREASSLKYLAEEFSIPVILTNQITTHLSGALASQADLVSPADDLSLSEGTSGSSCVIAALGNTWSHSVNTRLILQYLDSERRQILIAKSPLAPFTSFVYTIKEEGLVLQETTFCSVTQAELNWAPEILPPQPPEQLGLQMCHHTQLIF
B4: in test [1], the binding entry is recorded as “no binding”.

(Values after article doi:10.1101/2025.11.22.689938 (bioRxiv, 2025).)
